# Laboratory results reported in PubChem BioAssay AID1347076 (National Center for Advancing Translational Sciences (NCATS), 2019).
# Hit rate of the full screen: of about 400,000 compounds, about 13,000 (3.2%) were called active. The shares of active, inactive and inconclusive entries below differ from those in the screen. The call rests on the fitted dose curve; in most records, active means well fitted cell-killing curve with a large enough effect; inconclusive means small, poorly fitted or top-dose-only effect, or effect the other way; inactive means flat fitted curve, though single readings scatter. Potencies of inconclusive entries are doubtful fits and often do not repeat.
# Test: qHTS assay for MDR1-selective chemotherapeutics: Primary screen using the drug-selected MDR subline cells KB-V1; further: nearly all actives have a fitted effect of over 60% in size
# Settings: KB-V1 MDR cells viability, CellTiter-Glo, 72 h; activity change, negative = cytotoxicity: at 46.1 µM (top of the series)
# Summary of the method: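 In this primary screen, KB-V1 cells overexpressing P-gp are incubated with library compounds (lowest to highest concentration) for 72 h at 37 degrees C before a luminescent ATP viability read.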
# On the % scale 0 is the no-effect control and ±100 the full control effect; potency means the concentration at half of the fitted maximal effect.
Compound,"activity change, negative = cytotoxicity",Potency
COc1ccccc1Oc1cc(F)nc(N)n1,inactive: 3.03%,–
CCOC(=O)[C@]12CCCC=C1N(CCc1ccc(OC)c(OC)c1)C(=O)[C@H](CC(=O)N1CCSCC1)C2,–,"inconclusive: 4.11 µM [cytotoxic, full curve]"
CCc1ccc(CN(C(=O)c2oc3ccccc3c2C)C2CCS(=O)(=O)C2)cc1 (stereo not drawn),–,"inconclusive: 29.1 µM [cytotoxic, single point]"
CCOC(=O)c1sc2cc([N+](=O)[O-])cc(SCC(C)C)c2c1N,–,"inconclusive: 7.31 µM [cytotoxic, full curve, poor fit]"
CCOC(=O)c1ccc2c(c1)nc(SCc1cn3ccsc3n1)n2CC,–,"inconclusive: 6.51 µM [cytotoxic, partial curve]"
Cc1nn(-c2ccccc2)c2sc(C(=O)Nc3ccccc3Br)cc12,–,"inconclusive: 18.4 µM [cytotoxic, single point]"
Cc1ccc(NC(=O)CN2C(=O)C3(SCC(=O)N3c3cccc(Cl)c3)c3ccccc32)cc1C (stereo not drawn),–,active: 10.3 µM
CCCCNC(=O)C(NC(=O)c1cccc(C(F)(F)F)c1)C(=O)c1ccccc1 (stereo not drawn),inactive: 9.94%,–
CC(C)Oc1ccc2ccccc2c1CNC[C@H]1O[C@@H](n2ccc(N)nc2=O)[C@H](O)[C@@H]1O,inactive: 24.4%,–
Cc1ccc(NC(=O)CSc2nnc(-c3ccccn3)n2C)cc1,inactive: -2.4%,–
Cc1cc(=O)oc2cc(OCC(=O)N(C)C3CCS(=O)(=O)C3)c(Cl)cc12 (stereo not drawn),inactive: 14.2%,–
COc1cccc(CN(C)C(=O)C2CCCN(C(=O)c3ccc(Cl)cc3)C2)c1 (stereo not drawn),–,"inconclusive: 11.6 µM [cytotoxic, partial curve, poor fit]"
CCNc1nc(NCC)n2c(SCC(=O)Nc3cccc(F)c3)nnc2n1,–,"inconclusive: 29.1 µM [rising, single point]"
Nc1c(C(=O)Nc2ccc(C(=O)O)cc2)sc2nc3c(cc12)CCCC3,inactive: 9.42%,–
Cc1nc(-c2ccc(S(=O)(=O)Nc3ccc(S(N)(=O)=O)cc3)cc2)co1,–,"inconclusive: 29.1 µM [rising, single point]"
CCOC(=O)c1ccc(N/C(=N\S(=O)(=O)c2ccc(F)cc2F)c2ccccc2)cc1,inactive: -6.08%,–
O=[N+]([O-])/C=C/c1cn(Cc2ccc(Cl)cc2)c2ccccc12,–,"inconclusive: 29.1 µM [cytotoxic, single point]"
O=c1cc(-c2ccccc2)oc2c1CCCC2,–,"inconclusive: 29.1 µM [cytotoxic, single point]"
COc1ccc(CNC(=O)CN(Cc2ccccc2)S(=O)(=O)c2ccc(Cl)cc2)cc1,–,"inconclusive: 8.2 µM [cytotoxic, partial curve]"
O=C(NCc1ccc2c(c1)CCN2C(=O)c1ccc(Cl)cc1)c1cccc(F)c1,inactive: 9.8%,–
Cc1nc2nncn2c(NCc2ccc(F)cc2)c1C,inactive: 0%,–
Cc1cc(SCC(=O)NCCC2=CCCCC2)nc2ccccc12,–,"inconclusive: 23.1 µM [cytotoxic, partial curve, poor fit]"
CCOC(=O)C[C@H]1c2ccc(C(F)(F)F)cc2S(=O)(=O)N1C(C)C,–,"inconclusive: 16.4 µM [cytotoxic, partial curve]"

Compound,"activity change, negative = cytotoxicity",Potency
C=CCn1c(=O)c2ccccc2n2c(SC(C)C(=O)Nc3nc(-c4ccccc4)cs3)nnc12 (stereo not drawn),–,"inconclusive: 29.1 µM [cytotoxic, single point]"
O=C(COC(=O)c1cccc(Br)c1)NCc1ccco1,–,"inconclusive: 25.9 µM [rising, partial curve, poor fit]"
COc1ccc(CCNC(=O)c2ccc(Cl)cc2)cc1OC,–,"inconclusive: 23.1 µM [cytotoxic, single point]"
CC(=O)Nc1ccccc1/C=C/c1ccc2c(C)ccc(O)c2n1,–,"inconclusive: 29.1 µM [cytotoxic, single point]"
Cc1cc(-c2ccccc2)n[nH]1,inactive: 16.1%,–
CCc1ccc(NC(=O)COC(=O)/C=C/c2c(C)nn(C3CCS(=O)(=O)C3)c2Cl)cc1 (stereo not drawn),–,"inconclusive: 16.4 µM [rising, single point]"
Cc1ccc(S(=O)c2ccc(NC(=O)C3CC3)cc2C#N)cc1 (stereo not drawn),–,"inconclusive: 16.4 µM [cytotoxic, partial curve]"
COc1ccc(OC)c(NC(=O)CSc2nc3cccnc3n2C)c1,–,"inconclusive: 20.6 µM [cytotoxic, single point]"
CCOC(=O)c1csc(NC(=O)c2ccc(S(=O)(=O)N3CCCC3)cc2)n1,inactive: 14.3%,–
N#Cc1ccc(OC(=O)Cc2ccsc2)cc1,–,"inconclusive: 29.1 µM [rising, single point]"
O=C1[C@H](Cc2ccccc2)NCC=CC[C@@H](c2ccc(Cl)cc2)N1Cc1ccc(Cl)cc1,–,"inconclusive: 29.1 µM [cytotoxic, single point]"
CO/N=C/c1ccc(N2CCN(C(=O)c3ccc(F)cc3)CC2)c([N+](=O)[O-])c1,–,active: 16.4 µM
Cc1ccc(CSc2nc3ccsc3c(=O)n2Cc2ccccn2)cc1,–,"inconclusive: 23.1 µM [cytotoxic, single point]"
Cn1c(NCc2ccc(Cl)cc2)nc2ccccc21,inactive: -25.8%,–
O=C1c2ccccc2S(=O)(=O)c2cc(C(=O)N3CCN(c4ccc(Cl)cn4)CC3)ccc21,inactive: 0%,–
O=Cc1cn(-c2ccccc2)nc1-c1cccnc1,inactive: -15.1%,–
Cc1cc(C)nc(NN=CC2=C(N3CCOCC3)/C(=C/c3ccc(Cl)cc3)CC2)n1,inactive: -0.24%,–
CC(=O)c1ccc(NC(=S)N2CCN(S(=O)(=O)c3ccc(F)cc3)CC2)cc1,inactive: -18%,–
C/C(=N\NC(=O)c1cc(C)nc2ccccc12)c1cccs1,–,"inconclusive: 16.4 µM [cytotoxic, single point]"
Cc1c(C(=O)N2CCOCC2)c(S(=O)(=O)N2CCN(c3ccc(Cl)cc3)CC2)c(C)n1C,–,"inconclusive: 18.4 µM [cytotoxic, single point]"
CCCn1c(=N)n(CC(=O)c2ccc(Cl)cc2)c2ccccc21,–,"inconclusive: 29.1 µM [cytotoxic, partial curve, poor fit]"
Cc1ccc(S(=O)(=O)Nc2ccc3c(c2)C(=O)N([C@@H](C)CO)C[C@@H](C)[C@@H](CN(C)C(=O)NC2CCCCC2)OCCCC[C@H](C)O3)cc1,inactive: 0%,–
CCOc1cccc(N(C(=O)CCC(=O)Nc2cc(C)on2)C(C(=O)NC(C)(C)C)c2ccc(OC)cc2)c1 (stereo not drawn),–,"inconclusive: 7.31 µM [cytotoxic, partial curve]"

# Quoted at random: three records from the list
Compound,"activity change, negative = cytotoxicity",Potency
CCCn1c(=N)n(CC(=O)c2ccc(Cl)cc2)c2ccccc21,–,"inconclusive: 29.1 µM [cytotoxic, partial curve, poor fit]"
Cc1ccc(S(=O)(=O)Nc2ccc3c(c2)C(=O)N([C@@H](C)CO)C[C@@H](C)[C@@H](CN(C)C(=O)NC2CCCCC2)OCCCC[C@H](C)O3)cc1,inactive: 0%,–
Nc1c(C(=O)Nc2ccc(C(=O)O)cc2)sc2nc3c(cc12)CCCC3,inactive: 9.42%,–

# Further records follow:

Compound,"activity change, negative = cytotoxicity",Potency
O=C(CSc1nc2ccc(Cl)cc2[nH]1)NCc1ccco1,–,"inconclusive: 3.66 µM [rising, full curve, poor fit]"
CCOc1ccccc1NS(=O)(=O)c1ccc(-c2cnc(C3CC3)o2)cc1,–,"inconclusive: 0.651 µM [cytotoxic, full curve, poor fit]"
O=C(NNC(=S)Nc1ccc(F)cc1F)c1ccco1,–,"inconclusive: 29.1 µM [rising, single point]"
COC(=O)c1c(C)oc2ccc(N(C(=O)c3ccncc3)S(=O)(=O)c3ccc(C)cc3)cc12,–,active: 1.64 µM
Cc1nc(N)ncc1C(=O)Nc1ccccc1,–,"inconclusive: 7.31 µM [rising, partial curve]"
COc1cccc(CSc2nc3sc(C)c(C)c3c(=O)n2Cc2ccco2)c1,inactive: -10.8%,–
CCn1c(CN2CCOCC2)nnc1SCC(=O)Nc1cccc(C)c1,inactive: -18.2%,–
COc1ccc(/C=C2/C(=O)OCc3cc(OC)c(OC)cc32)c(OC)c1,–,"inconclusive: 23.1 µM [cytotoxic, single point]"
CC(=O)C1=NN(c2ccccc2)C(c2ccc3c(c2)OCO3)N1c1ccc(N2CCOCC2)cc1 (stereo not drawn),–,"inconclusive: 2.59 µM [cytotoxic, partial curve, poor fit]"
O=C(Nc1ccc(F)cc1)Nc1cccc(Br)c1,–,"inconclusive: 29.1 µM [cytotoxic, single point]"
COc1ccc(-n2c(O)c(C=NCC(c3ccco3)N3CCCC3)c3ccccc3c2=O)cc1OC (stereo not drawn),–,"inconclusive: 29.1 µM [rising, single point]"
Cc1c(Cl)cccc1NC(=O)c1ncn(-c2ccccc2)n1,–,"inconclusive: 29.1 µM [rising, single point]"
Cc1cc(NC(=O)COc2ccccc2C)ccc1NC(=O)c1cccs1,–,"inconclusive: 10.3 µM [cytotoxic, partial curve]"
COc1cccc(NC(=O)CC(C)S(=O)(=O)c2ccc3c(c2)NC(=O)CO3)c1 (stereo not drawn),inactive: 7.54%,–
CCCCOC(=O)C1=C(C)Nc2nnnn2C1c1ccccc1Cl (stereo not drawn),–,"inconclusive: 14.6 µM [cytotoxic, partial curve]"
CCC(=O)Oc1ccc(/C(CC)=C(\CC)c2ccc(OC(=O)CC)cc2)cc1,–,"inconclusive: 29.1 µM [cytotoxic, single point]"
O=C1c2ccccc2CN1CCNC(=S)NC1CCCCC1,–,"inconclusive: 29.1 µM [cytotoxic, single point]"
COC(=O)c1c(NC(=O)CN2CCCc3ccccc32)sc(C)c1C,–,"inconclusive: 20.6 µM [cytotoxic, partial curve, poor fit]"
CC(Oc1cccc(Cl)c1)C(=O)Nc1cc(Cl)ccc1N1CCOCC1 (stereo not drawn),–,"inconclusive: 10.3 µM [cytotoxic, partial curve]"
CCCNC(=O)C1(C)CCN1C(=O)C/C=C/c1ccccc1 (stereo not drawn),–,"inconclusive: 25.9 µM [cytotoxic, partial curve, poor fit]"
CCOC(=O)Cc1csc(NC(=O)c2ccc(C)cc2)n1,–,"inconclusive: 29.1 µM [cytotoxic, single point]"
COc1ccccc1-c1cnc(C(O)c2ccccc2)[nH]1 (stereo not drawn),–,"inconclusive: 29.1 µM [cytotoxic, single point]"
